In article doi:10.1101/2024.01.03.574021 one finds binding data, which are given here for three molecules.

Protein sequences, listed by entry. Tags and fused reporters are not part of them.
UniProt Q04206: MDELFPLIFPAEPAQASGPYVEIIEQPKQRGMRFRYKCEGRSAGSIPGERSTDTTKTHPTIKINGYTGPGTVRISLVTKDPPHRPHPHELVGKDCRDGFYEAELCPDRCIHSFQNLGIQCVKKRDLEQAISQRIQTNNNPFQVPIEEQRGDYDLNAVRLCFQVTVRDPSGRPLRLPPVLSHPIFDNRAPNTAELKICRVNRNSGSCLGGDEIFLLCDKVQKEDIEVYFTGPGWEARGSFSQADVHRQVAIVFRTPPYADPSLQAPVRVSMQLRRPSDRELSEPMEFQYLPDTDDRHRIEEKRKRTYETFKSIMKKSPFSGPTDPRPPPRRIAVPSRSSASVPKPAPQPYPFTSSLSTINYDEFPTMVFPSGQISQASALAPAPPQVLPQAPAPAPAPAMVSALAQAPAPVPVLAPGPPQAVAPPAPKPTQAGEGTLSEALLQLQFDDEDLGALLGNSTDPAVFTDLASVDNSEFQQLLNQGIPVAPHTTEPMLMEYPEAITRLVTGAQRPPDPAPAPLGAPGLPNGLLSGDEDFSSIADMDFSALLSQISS
UniProt P19532: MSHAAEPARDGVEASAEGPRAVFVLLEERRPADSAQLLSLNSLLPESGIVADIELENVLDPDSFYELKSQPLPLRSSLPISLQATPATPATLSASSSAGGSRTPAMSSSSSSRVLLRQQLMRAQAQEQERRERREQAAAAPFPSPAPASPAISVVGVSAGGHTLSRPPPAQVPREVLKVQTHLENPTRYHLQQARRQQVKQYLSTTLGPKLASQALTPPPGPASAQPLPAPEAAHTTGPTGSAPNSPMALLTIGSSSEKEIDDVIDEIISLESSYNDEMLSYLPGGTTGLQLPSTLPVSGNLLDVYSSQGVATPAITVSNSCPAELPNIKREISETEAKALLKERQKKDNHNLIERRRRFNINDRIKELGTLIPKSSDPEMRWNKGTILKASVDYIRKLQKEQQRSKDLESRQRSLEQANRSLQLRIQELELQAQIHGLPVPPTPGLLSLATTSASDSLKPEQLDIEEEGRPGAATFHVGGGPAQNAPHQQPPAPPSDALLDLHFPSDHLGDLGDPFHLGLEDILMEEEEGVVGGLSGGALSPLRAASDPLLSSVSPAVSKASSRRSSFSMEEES

The labels stand for the following.
B1: Zinc finger protein GLI-similar 2 (GLIS2) (protein, UniProt Q9BZE0 1-524)
chain: MHSLDEPLDLKLSITKLRAAREKRERTLGVVRPRALHRELGLVDDSPTPGSPGSPPSGFLLNSKFPEKVEGRFSAAPLVDLSLSPPSGLDSPNGSSSLSPERQGNGDLPPVPSASDFQPLRYLDGVPSSFQFFLPLGSGGALHLPASSFLTPPKDKCLSPDLPLPKQLVCRWAKCNQLFELLQDLVDHVNDYHVKPEKDAGYCCHWEGCARHGRGFNARYKMLIHIRTHTNEKPHRCPTCSKSFSRLENLKIHNRSHTGEKPYVCPYEGCNKRYSNSSDRFKHTRTHYVDKPYYCKMPGCHKRYTDPSSLRKHIKAHGHFVSHEQQELLQLRPPPKPPLPAPDGGPYVSGAQIIIPNPAALFGGPGLPGLPLPLAPGPLDLSALACGNGGGSGGGGGMGPGLPGPVLPLNLAKNPLLPSPFGAGGLGLPVVSLLAGAAGGKAEGEKGRGSVPTRALGMEGHKTPLERTESSCSRPSPDGLPLLPGTVLDLSTGVNSAASSPEALAPGWVVIPPGSVLLKPAVVN
B2: zinc finger and BTB domain containing 5 (ZBTB5) (protein, UniProt O15062 1-677)
chain: MDFPGHFEQIFQQLNYQRLHGQLCDCVIVVGNRHFKAHRSVLAACSTHFRALFSVAEGDQTMNMIQLDSEVVTAEAFAALIDMMYTSTLMLGESNVMDVLLAASHLHLNSVVKACKHYLTTRTLPMSPPSERVQEQSARMQRSFMLQQLGLSIVSSALNSSQNGEEQPAPMSSSMRSNLDQRTPFPMRRLHKRKQSAEERARQRLRPSIDESAISDVTPENGPSGVHSREEFFSPDSLKIVDNPKADGMTDNQEDSAIMFDQSFGTQEDAQVPSQSDNSAGNMAQLSMASRATQVETSFDQEAAPEKSSFQCENPEVGLGEKEHMRVVVKSEPLSSPEPQDEVSDVTSQAEGSESVEVEGVVVSAEKIDLSPESSDRSFSDPQSSTDRVGDIHILEVTNNLEHKSTFSISNFLNKSRGNNFTANQNNDDNIPNTTSDCRLESEAPYLLSPEAGPAGGPSSAPGSHVENPFSEPADSHFVRPMQEVMGLPCVQTSGYQGGEQFGMDFSRSGLGLHSSFSRVMIGSPRGGASNFPYYRRIAPKMPVVTSVRSSQIPENSTSSQLMMNGATSSFENGHPSQPGPPQLTRASADVLSKCKKALSEHNVLVVEGARKYACKICCKTFLTLTDCKKHIRVHTGEKPYACLKCGKRFSQSSHLYKHSKTTCLRWQSSNLPSTLL

These are yes or no findings as the source states them, for the method shown. In cells and extracts the contact can be indirect. Some results given as binding are weak or reduced against the parent protein; the word gives no strength.

This test addresses p65 / RELA (endogenous) (human (endogenous in HeLa)) (UniProt Q04206). The experiment in a line: proximity ligation.
Turning to “transcription factor E3 (TFE3) (from UniProt P19532 1-575)”, the binding entry is on record as “binds”.

Turning to B1, the binding result is recorded as “binds”.

On to B2, for which the binding entry is “binds”.
